Assay [1] concerns the target SUZ12 (PRC2 member) (mouse (endogenous in MEFs)), Q80U70. Description: co-IP; IP with anti-SUZ12 (D39F6) on Dynabeads from whole-cell extracts (NP40 buffer, 50 ug total protein) of DNMT3L- or RFP-expressing MEFs 48 h after doxycycline induction; Western blot for DNMT3L, SUZ12, EZH2. To be noted: remark: other sources report otherwise.
The target of assay [2] is T1, N-terminal FLAG-tagged DNMT3L (DNA methyltransferase 3-like) (mouse), Q9CWR8.
T1 chain: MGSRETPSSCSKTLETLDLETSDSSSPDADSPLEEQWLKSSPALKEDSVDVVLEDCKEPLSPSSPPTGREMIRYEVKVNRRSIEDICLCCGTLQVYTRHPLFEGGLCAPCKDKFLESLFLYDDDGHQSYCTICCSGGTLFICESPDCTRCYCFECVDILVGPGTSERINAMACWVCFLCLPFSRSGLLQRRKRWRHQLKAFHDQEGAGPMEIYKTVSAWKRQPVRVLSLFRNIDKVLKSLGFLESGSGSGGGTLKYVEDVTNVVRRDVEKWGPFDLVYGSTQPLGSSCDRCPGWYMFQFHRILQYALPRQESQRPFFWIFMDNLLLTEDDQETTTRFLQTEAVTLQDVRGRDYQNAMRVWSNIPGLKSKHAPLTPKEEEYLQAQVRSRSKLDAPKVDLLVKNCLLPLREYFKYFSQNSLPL
The experiment in a line: co-IP; IP with anti-FLAG (M2) on Dynabeads from whole-cell extracts (NP40 buffer, 50 ug total protein) of DNMT3L- or RFP-expressing MEFs 48 h after doxycycline induction; Western blot for DNMT3L, SUZ12, EZH2. The settings on record: remark: other sources report otherwise. For orientation: In western blotting, separated proteins are transferred to a membrane and probed.

Results are given in words; binding and its absence hold for the method and conditions named. Binding seen in cells or lysates may run through a third protein. Some entries that bind do so weakly or less than the wild type. Where a sequence is shown, tags or fusion partners need not be part of it.

B1: N-terminal FLAG-tagged DNMT3L (DNA methyltransferase 3-like), Q9CWR8 1-421 (protein)
chain: MGSRETPSSCSKTLETLDLETSDSSSPDADSPLEEQWLKSSPALKEDSVDVVLEDCKEPLSPSSPPTGREMIRYEVKVNRRSIEDICLCCGTLQVYTRHPLFEGGLCAPCKDKFLESLFLYDDDGHQSYCTICCSGGTLFICESPDCTRCYCFECVDILVGPGTSERINAMACWVCFLCLPFSRSGLLQRRKRWRHQLKAFHDQEGAGPMEIYKTVSAWKRQPVRVLSLFRNIDKVLKSLGFLESGSGSGGGTLKYVEDVTNVVRRDVEKWGPFDLVYGSTQPLGSSCDRCPGWYMFQFHRILQYALPRQESQRPFFWIFMDNLLLTEDDQETTTRFLQTEAVTLQDVRGRDYQNAMRVWSNIPGLKSKHAPLTPKEEEYLQAQVRSRSKLDAPKVDLLVKNCLLPLREYFKYFSQNSLPL
As for B1, the binding entry in assay [1] is “binds”.

B2: SUZ12 (PRC2 member), Q80U70 1-741 (protein)
chain: MAPQKHGGGGGGGSGPSAGSGGGGFGGSAAAVAAAASGGKSGGGGCGGGGSYSASSSSAAAAAAAAGAAVLPVKKPKMEHVQADHELFLQAFEKPTQIYRFLRTRNLIAPIFLHRTLTYMSHRNSRTSIKRKTFKVDDMLSKVEKMKGEQESHSLSAHLQLTFTGFFHKNDKPSQNSENEQNSVTLEVLLVKVCHKKRKDVSCPIRQVPTGKKQVPLNPDLNQTKPGNFPSLAVSSNEFEPSNSHMVKSYSLLFRVTRPGRREFNGMINGETNENIDVSEELPARRKRNREDGEKTFVAQMTVFDKNRRLQLLDGEYEVAMQEMEECPISKKRATWETILDGKRLPPFETFSQGPTLQFTLRWTGETNDKSTAPVAKPLATRNSESLHQENKPGSVKPAQTIAVKETLTTELQTRKEKDNSNESRQKLRIFYQFLYNNNTRQQTEARDDLHCPWCTLNCRKLYSLLKHLKLCHSRFIFNYVYHPKGARIDVSINECYDGSYAGNPQDIHRQPGFAFSRNGPVKRTPITHILVCRPKRTKASMSEFLESEDGEVEQQRTYSSGHNRLYFHSDTCLPLRPQEMEVDSEDEKDPEWLREKTITQIEEFSDVNEGEKEVMKLWNLHVMKHGFIADNQMNHACMLFVENYGQKIIKKNLCRNFMLHLVSMHDFNLISIMSIDKAVTKLREMQQKLEKGESATPSNEEIAEEQNGTANGFSETNSKEKALETDGVSGVPKQSKKQKL
Take B2: the binding entry in assay [2] was “binds”.

(Values after paper PMC7064442.)
